# Reference: ChEMBL document CHEMBL4316593 (Eur J Med Chem, 2019)
# Further values from the same series stand in other lists.
# Tests used:
# Format in all cases: cell-based
# Settings in all cases: U-87MG ATCC
# [1] = Inhibition of RTK/PI3K/AKT/mTOR signaling in human U87 cells assessed as down regulation of LCP1 gene expression at cytotoxic IC50 measured after 48 hrs relative to control
# [2] = Inhibition of RTK/PI3K/AKT/mTOR signaling in human U87 cells assessed as down regulation of SEMA4F gene expression at cytotoxic IC50 measured after 48 hrs relative to control
# [3] = Inhibition of RTK/PI3K/AKT/mTOR signaling in human U87 cells assessed as down regulation of ZBTB43 gene expression at cytotoxic IC50 measured after 48 hrs relative to control
# [4] = Inhibition of RTK/PI3K/AKT/mTOR signaling in human U87 cells assessed as down regulation of ID2 gene expression at cytotoxic IC50 measured after 48 hrs relative to control
# [5] = Inhibition of RTK/PI3K/AKT/mTOR signaling in human U87 cells assessed as down regulation of ANAPC10 gene expression at cytotoxic IC50 measured after 48 hrs relative to control
# [6] = Inhibition of RTK/PI3K/AKT/mTOR signaling in human U87 cells assessed as down regulation of ATG4A gene expression at cytotoxic IC50 measured after 48 hrs relative to control
# [7] = Inhibition of RTK/PI3K/AKT/mTOR signaling in human U87 cells assessed as down regulation of KDM7A gene expression at cytotoxic IC50 measured after 48 hrs relative to control
# [8] = Inhibition of RTK/PI3K/AKT/mTOR signaling in human U87 cells assessed as down regulation of RIPK2 gene expression at cytotoxic IC50 measured after 48 hrs relative to control
# [9] = Inhibition of RTK/PI3K/AKT/mTOR signaling in human U87 cells assessed as down regulation of RAB22A gene expression at cytotoxic IC50 measured after 48 hrs relative to control
# [10] = Inhibition of RTK/PI3K/AKT/mTOR signaling in human U87 cells assessed as down regulation of MIR4435-2HG gene expression at cytotoxic IC50 measured after 48 hrs relative to control
# [11] = Inhibition of RTK/PI3K/AKT/mTOR signaling in human U87 cells assessed as down regulation of MIGA1 gene expression at cytotoxic IC50 measured after 48 hrs relative to control
# [12] = Inhibition of RTK/PI3K/AKT/mTOR signaling in human U87 cells assessed as down regulation of ME1 gene expression at cytotoxic IC50 measured after 48 hrs relative to control
# [13] = Inhibition of RTK/PI3K/AKT/mTOR signaling in human U87 cells assessed as down regulation of BUD31 gene expression at cytotoxic IC50 measured after 48 hrs relative to control
# [14] = Inhibition of RTK/PI3K/AKT/mTOR signaling in human U87 cells assessed as down regulation of ERP44 gene expression at cytotoxic IC50 measured after 48 hrs relative to control
# [15] = Inhibition of RTK/PI3K/AKT/mTOR signaling in human U87 cells assessed as down regulation of ARL6IP1 gene expression at cytotoxic IC50 measured after 48 hrs relative to control
# [16] = Inhibition of RTK/PI3K/AKT/mTOR signaling in human U87 cells assessed as up regulation of NCMAP gene expression at cytotoxic IC50 measured after 48 hrs relative to control
# [17] = Inhibition of RTK/PI3K/AKT/mTOR signaling in human U87 cells assessed as up regulation of DHRS3 gene expression at cytotoxic IC50 measured after 48 hrs relative to control
# [18] = Inhibition of RTK/PI3K/AKT/mTOR signaling in human U87 cells assessed as up regulation of IL11 gene expression at cytotoxic IC50 measured after 48 hrs relative to control
# [19] = Inhibition of RTK/PI3K/AKT/mTOR signaling in human U87 cells assessed as up regulation of solute carrier family 25 member 37 gene expression at cytotoxic IC50 measured after 48 hrs relative to control
# [20] = Inhibition of RTK/PI3K/AKT/mTOR signaling in human U87 cells assessed as up regulation of protein disulfide isomerase family A member 4 gene expression at cytotoxic IC50 measured after 48 hrs relative to control
# [21] = Inhibition of RTK/PI3K/AKT/mTOR signaling in human U87 cells assessed as up regulation of leucine zipper tumor suppressor 2 gene expression at cytotoxic IC50 measured after 48 hrs relative to control
# [22] = Inhibition of RTK/PI3K/AKT/mTOR signaling in human U87 cells assessed as up regulation of cadherin 3 gene expression at cytotoxic IC50 measured after 48 hrs relative to control
# [23] = Inhibition of RTK/PI3K/AKT/mTOR signaling in human U87 cells assessed as up regulation of solute carrier family 7 member 5 gene expression at cytotoxic IC50 measured after 48 hrs relative to control
# [24] = Inhibition of RTK/PI3K/AKT/mTOR signaling in human U87 cells assessed as up regulation of ring finger protein 130 gene expression at cytotoxic IC50 measured after 48 hrs relative to control
# [25] = Inhibition of RTK/PI3K/AKT/mTOR signaling in human U87 cells assessed as up regulation of THO complex 6 gene expression at cytotoxic IC50 measured after 48 hrs relative to control
# [26] = Inhibition of RTK/PI3K/AKT/mTOR signaling in human U87 cells assessed as up regulation of lysine demethylase 4B gene expression at cytotoxic IC50 measured after 48 hrs relative to control
# [27] = Inhibition of RTK/PI3K/AKT/mTOR signaling in human U87 cells assessed as up regulation of GDP-mannose pyrophosphorylase A gene expression at cytotoxic IC50 measured after 48 hrs relative to control
# [28] = Inhibition of RTK/PI3K/AKT/mTOR signaling in human U87 cells assessed as up regulation of glutamyl-tRNA synthetase 2, mitochondrial gene expression at cytotoxic IC50 measured after 48 hrs relative to control
# [29] = Inhibition of RTK/PI3K/AKT/mTOR signaling in human U87 cells assessed as up regulation of SCARB1 gene expression at cytotoxic IC50 measured after 48 hrs relative to control
# [30] = Inhibition of RTK/PI3K/AKT/mTOR signaling in human U87 cells assessed as up regulation of CD55 gene expression at cytotoxic IC50 measured after 48 hrs relative to control
# [31] = Inhibition of RTK/PI3K/AKT/mTOR signaling in human U87 cells assessed as up regulation of RPL32 gene expression at cytotoxic IC50 measured after 48 hrs relative to control
# [32] = Inhibition of RTK/PI3K/AKT/mTOR signaling in human U87 cells assessed as up regulation of SAT1 gene expression at cytotoxic IC50 measured after 48 hrs relative to control
structure (smiles),measurement,setting,value
CC(=O)C(=NNc1ccccc1C#N)C(C)=O,log2FC,[1],-3.31
same,log2FC,[2],-1.43
same,log2FC,[3],-1.42
same,log2FC,[4],-1.05
same,log2FC,[5],-1
same,log2FC,[6],-0.953
same,log2FC,[7],-0.842
same,log2FC,[8],-0.828
same,log2FC,[9],-0.789
same,log2FC,[10],-0.785
same,log2FC,[11],-0.709
same,log2FC,[12],-0.667
same,log2FC,[13],-0.579
same,log2FC,[14],-0.504
same,log2FC,[15],-0.486
same,log2FC,[16],2.53
same,log2FC,[17],2.31
same,log2FC,[18],1.57
same,log2FC,[19],1.37
same,log2FC,[20],1.29
same,log2FC,[21],1.25
same,log2FC,[22],1.1
same,log2FC,[23],1.02
same,log2FC,[24],1.02
same,log2FC,[25],1
same,log2FC,[26],0.873
same,log2FC,[27],0.786
same,log2FC,[28],0.716
same,log2FC,[29],0.643
same,log2FC,[30],0.57
same,log2FC,[31],0.388
same,log2FC,[32],0.36
